Assay results: publication PMC3648552
Results are given in words; binding and its absence hold for the method and conditions named. In cells and extracts the contact can be indirect. Some results given as binding are weak or reduced against the parent protein; the word gives no strength.

Sequences of proteins named here, by UniProt entry; tags and fusion partners are left off.
UniProt Q9UBK9: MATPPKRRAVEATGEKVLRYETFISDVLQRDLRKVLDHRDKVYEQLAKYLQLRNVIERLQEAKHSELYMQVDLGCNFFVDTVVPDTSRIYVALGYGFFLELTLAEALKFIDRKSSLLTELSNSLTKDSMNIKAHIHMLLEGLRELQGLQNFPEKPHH
UniProt O94763: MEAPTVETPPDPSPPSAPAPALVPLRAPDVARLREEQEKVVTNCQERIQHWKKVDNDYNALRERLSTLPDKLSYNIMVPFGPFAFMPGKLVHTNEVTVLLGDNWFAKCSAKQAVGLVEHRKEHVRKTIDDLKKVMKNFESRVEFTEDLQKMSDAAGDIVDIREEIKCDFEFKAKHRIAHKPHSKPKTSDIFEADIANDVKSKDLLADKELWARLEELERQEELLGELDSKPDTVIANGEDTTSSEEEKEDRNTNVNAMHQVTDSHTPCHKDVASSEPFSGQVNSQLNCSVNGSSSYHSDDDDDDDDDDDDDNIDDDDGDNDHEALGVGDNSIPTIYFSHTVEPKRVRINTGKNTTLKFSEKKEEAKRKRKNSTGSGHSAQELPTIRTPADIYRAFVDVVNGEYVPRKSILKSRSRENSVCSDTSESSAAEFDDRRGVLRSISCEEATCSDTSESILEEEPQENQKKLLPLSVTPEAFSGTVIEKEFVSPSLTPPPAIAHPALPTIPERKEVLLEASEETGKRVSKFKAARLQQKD
UniProt Q9NUG6: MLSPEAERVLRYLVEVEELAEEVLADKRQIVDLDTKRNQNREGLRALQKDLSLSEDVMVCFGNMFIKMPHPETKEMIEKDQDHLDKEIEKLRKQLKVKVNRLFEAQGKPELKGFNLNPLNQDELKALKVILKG
UniProt Q9Y265: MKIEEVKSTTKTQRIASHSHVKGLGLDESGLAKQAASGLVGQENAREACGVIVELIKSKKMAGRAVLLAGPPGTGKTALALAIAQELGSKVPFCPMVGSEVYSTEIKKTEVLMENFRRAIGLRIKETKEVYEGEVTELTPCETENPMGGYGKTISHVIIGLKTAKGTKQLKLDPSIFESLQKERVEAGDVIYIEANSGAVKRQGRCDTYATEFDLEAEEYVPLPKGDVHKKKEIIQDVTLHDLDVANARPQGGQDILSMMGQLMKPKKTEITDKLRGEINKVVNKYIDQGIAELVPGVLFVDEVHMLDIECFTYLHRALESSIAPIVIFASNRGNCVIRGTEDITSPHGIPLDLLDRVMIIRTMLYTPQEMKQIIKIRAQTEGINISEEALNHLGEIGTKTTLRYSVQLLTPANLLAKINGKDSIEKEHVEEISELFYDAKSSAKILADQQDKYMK

Legend:
[1] = target: androgen receptor trapped clone-27 (Art-27), endogenous in LNCaP cells (human (endogenous in LNCaP)) (UniProt Q9UBK9); assay: co-IP; lysates of LNCaP-vector and LNCaP-URI stable cells; precipitation with a monoclonal anti-URI antibody, a FLAG antibody or a polyclonal anti-Art-27 antibody; Western blot
[2] = target: FLAG-URI alpha (Unconventional prefoldin RPB5 Interactor), stably overexpressed in LNCaP cells (UniProt O94763); assay: as above
[3] = target: endogenous URI of LNCaP cells (human (endogenous in LNCaP)) (UniProt O94763); assay: as above
[4] = target: FLAG-URI wild type, transfected in 293 cells (pcDNA3-FLAG-URI) (UniProt O94763); assay: co-IP; 293 (HEK293) cells transfected with FLAG-URI constructs and RPB5, PDRG1 or HA-Art-27; lysed 48 h later; URI precipitated with FLAG antibodies, Western blot; for RPB5 with or without 25 µM MG132
[5] = target: FLAG-URI alpha (Unconventional prefoldin RPB5 Interactor), stably overexpressed in LNCaP cells (UniProt O94763); assay: co-IP; nuclear extracts of LNCaP cells stably overexpressing URI; URI precipitated; Western blot for RUVBL1 and RUVBL2

Substance: P53 and DNA damage-Regulated Gene 1 (PDRG1), endogenous in LNCaP cells (from UniProt Q9NUG6 1-133)
- binding [1]: binds
- binding [2]: binds
- binding [3]: binds

Substance: PDRG1 overexpressed in HEK293 cells (PDRG1 in pCMV6-XL5) (from UniProt Q9NUG6 1-133)
- binding [4]: binds

Substance: RUVBL1, endogenous in LNCaP cells (from UniProt Q9Y265 1-456)
- binding [5]: binds
